At least one structure is not confirmed: it was looked up by name or label, or the drawing left a doubt.
Test system: Wild type #
Experiment: Antiviral activity (EC50) in CEMA and CEM-T4 cells
Assay type: cell-based, HIV-1
Details: wild type # marked a,b = CEMA and CEM-T4 cells

Cc1cn([C@H]2C[C@H](F)[C@@H](COP(=O)(O)O)O2)c(=O)[nH]c1=O [FLT MP, reference compound]
EC50: ≤0.01 2 µM

— patent EP2402356A2, “Modified 2',3'-dideoxynucleosides for treatment infections caused by human immunodeficiency virus (HIV) multidrug resistant strains, method of their synthesis and the pharmaceutical agent containing these nucleosides” (Instytut Biochemii I Biofizyki Pan, priority 2010, dated 2012)
